# Test results from PubChem BioAssay AID2685 (National Center for Advancing Translational Sciences (NCATS), 2010).
# The list shows a part of the results. These are further read-outs of the screen, such as a control signal, another cell line or another target. No call is given for them. Most of these compounds were active or inconclusive in the main read-out, so they are no random draw. The note in brackets gives the kind of curve behind each potency; many fits are weak.
# Experiment: qHTS Assay for Lipid Storage Modulators in Drosophila S3 Cells;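 on cell number change: cells counted by Cell Tracker Red CMTPX staining in the red channel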
# Details: BODIPY lipid droplet fluorescence, 18-24 h; for cell number change: measured here: cell count max response, cells fed with added oleic acid
# Procedure, shortened: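 Drosophila S3 cells got compounds at several concentrations plus oleic acid (400 uM solution). Laser-scanning cytometry with 488 nm excitation read lipid droplets at 500-530 nm and cells at 575-640 nm. Percent activity was relative to 20 uM Triacsin C.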
# [1] = measured here: cell number channel AC50, cells fed with added oleic acid
# [2] = measured here: lipid fluorescence (Fed channel) AC50, cells fed with added oleic acid
smiles,measurement,setting,value
C/C=C(\C)C(=O)OC1C(C)=C2C(C1OC(=O)CCCCC)C(C)(OC(C)=O)CC(OC(=O)CCC)C1(O)C2OC(=O)C1(C)O (stereo not drawn),cell number change,,-75.2%
same,AC50,[1],"8.2 µM [falling, partial curve]"
same,AC50,[2],"7.31 µM [falling, partial curve]"
CC(C)OCCCNC(=O)c1c(N)n(Cc2cccs2)c2nc3ccccc3nc12,cell number change,,-74.3%
same,AC50,[1],"25.9 µM [falling, single point]"
same,AC50,[2],"29.1 µM [falling, single point]"
CC(=O)C1C2c3ccccc3OC1(C)N=c1s/c(=C/c3cnn(C)c3)c(=O)n12 (stereo not drawn),cell number change,,1.7%
same,AC50,[2],"18.4 µM [rising, single point]"
COc1ccc(C2=NS(=O)(=O)N(C)C(C(=O)N3CCC4(CC3)OCCO4)=C2)cc1OC,cell number change,,-5.37%
same,AC50,[2],"2.91 µM [falling, partial curve]"
CNS(=O)(=O)c1ccc(N=Cc2c(O)n(-c3cccc(C)c3)c(=O)[nH]c2=O)cc1,cell number change,,-12.7%
same,AC50,[2],"3.66 µM [falling, full curve]"
COc1cc2c(cc1O)CC1c3c(cc(O)c(OC)c3-2)CCN1C (stereo not drawn),cell number change,,23.9%
same,AC50,[2],"13 µM [rising, single point]"
CCC(NC(=O)OC(C)(C)C)C(=O)Oc1cc(C)cc2oc(=O)c3c(c12)CCC3 (stereo not drawn),cell number change,,9.35%
same,AC50,[2],"23.1 µM [rising, single point]"
CC12CCC3C(CC=C4CC(O)CCC43C)C1C/C(=C\c1ccccc1F)C2=O (stereo not drawn),cell number change,,-25.2%
same,AC50,[2],"18.4 µM [falling, single point]"
CN1CCN(Cc2ccc(Br)s2)CC1,cell number change,,3.59%
CC(=NCCCN1CCOCC1)c1c(O)[nH]c(=O)[nH]c1=O,cell number change,,-18.6%
same,AC50,[2],"0.058 µM [falling, full curve, poor fit]"
COC(=O)C1=C(c2ccc(F)cc2F)C[C@@H]2CC[C@H]1N2C(=O)N1CCOCC1,cell number change,,-5.16%
same,AC50,[2],"7.31 µM [rising, single point]"
COCCNCCOc1ccc(C(C)(C)c2ccccc2)cc1,cell number change,,-66.7%
same,AC50,[1],"1.64 µM [falling, full curve]"
O=P(c1ccccc1)(c1ccccc1)N1CCCCC1,cell number change,,-4.58%
same,AC50,[2],"29.1 µM [falling, single point]"
COC(=O)C1=C(c2ccc(-c3ccccc3)c(F)c2)C[C@@H]2CC[C@H]1N2C(=O)N1CCC(O)CC1,cell number change,,12%
same,AC50,[2],"29.1 µM [falling, single point]"
COc1ccc(CCNCc2ccc(F)cc2)cc1OC,cell number change,,45.1%
same,AC50,[1],"25.9 µM [rising, single point]"
COc1cccc(-n2c(CN3CCOCC3)nc3ccc([N+](=O)[O-])cc3c2=O)c1,cell number change,,17.1%
same,AC50,[2],"3.66 µM [rising, partial curve]"
CCC(C)NC(=O)c1c(N)n(CC2CCCO2)c2nc3ccccc3nc12 (stereo not drawn),cell number change,,-50.1%
same,AC50,[1],"20.6 µM [falling, single point]"
same,AC50,[2],"29.1 µM [falling, single point]"
O=C(c1ccccc1)c1ccc(N=Nc2c(O)[nH]c(=O)[nH]c2=O)cc1,AC50,[1],"1.3 µM [rising, full curve, poor fit]"
COC(=O)C1=C(c2cccc(C#N)c2)C[C@@H]2CC[C@H]1N2C(=O)NC1Cc2ccccc2C1,cell number change,,-2.64%
same,AC50,[1],"2.06 µM [falling, partial curve, poor fit]"
same,AC50,[2],"2.06 µM [falling, partial curve]"
Cc1nc2ncnn2c(C)c1CCC(=O)N1CCC2(CC1)OCCO2,AC50,[1],"0.259 µM [falling, partial curve, poor fit]"
same,AC50,[2],"0.231 µM [falling, full curve, poor fit]"
COc1ccc(C(CNC(=O)CCc2ccsc2)N(C)C)cc1 (stereo not drawn),cell number change,,-18.4%
CC(=O)N1CCN(CCN=Cc2c(O)n(-c3ccc(F)cc3)c(=S)[nH]c2=O)CC1,cell number change,,-29.2%
same,AC50,[1],"0.326 µM [falling, full curve, poor fit]"
same,AC50,[2],"4.61 µM [falling, full curve, poor fit]"
CC1(C)N=C(c2ccccc2)[C@@H]2C(c3ccc([N+](=O)[O-])cc3)N21 (stereo partly drawn),cell number change,,19.6%
same,AC50,[1],"6.51 µM [rising, partial curve, poor fit]"
Cn1cc(C(=O)OCC(=O)N2CCCCC2)c2ccccc21,cell number change,,-6.83%
same,AC50,[2],"2.59 µM [rising, partial curve, poor fit]"
NC(CC(=O)O)C1CCCCC1 (stereo not drawn),cell number change,,-14%
same,AC50,[2],"0.00411 µM [falling, full curve, poor fit]"
COP(=O)(NC(=O)C(Cl)(Cl)Cl)OC,cell number change,,13.6%
same,AC50,[2],"4.61 µM [falling, single point]"
CCN1C[C@]2(CO)CC[C@H](OC)[C@@]34C2[C@H](OC)[C@@](O)(C13)[C@@]1(O)C[C@H](OC)[C@H]2C[C@@H]4[C@@H]1[C@H]2OC,cell number change,,30.6%
same,AC50,[1],"0.259 µM [rising, full curve, poor fit]"
COc1ccc(OC)c(NP(=O)(Oc2ccccc2)Oc2ccccc2)c1,cell number change,,16.3%
COC(=O)C1=C(c2c(C)noc2C)C[C@@H]2CC[C@H]1N2C(=O)N1CCc2cc(OC)c(OC)cc2C1,cell number change,,7.06%
same,AC50,[1],"0.651 µM [falling, full curve]"
same,AC50,[2],"0.146 µM [rising, full curve]"
CCCCOC(=O)COc1cc(C)cc2oc(=O)c3c(c12)CCC3,cell number change,,36.5%
same,AC50,[1],"29.1 µM [rising, single point]"
same,AC50,[2],"0.206 µM [falling, full curve]"
COc1ccc(-c2nc3ccccc3c(=O)n2-c2nccs2)cc1,AC50,[2],"1.64 µM [falling, full curve]"
Cc1cccc(OP(=O)(NCc2ccccc2)Oc2cccc(C)c2)c1,cell number change,,-16.8%
same,AC50,[2],"13 µM [falling, single point]"
COc1ccc(N2C(=O)NC(=O)/C(=C\c3ccc([N+](=O)[O-])s3)C2=O)cc1,cell number change,,-13.7%
same,AC50,[2],"16.4 µM [falling, single point]"
O=c1c2ccccc2nc(-c2ccccc2)n1-c1ccccc1O,cell number change,,-8.84%
COc1ccc(CCNC(C)CCc2ccc(OC)cc2)cc1 (stereo not drawn),cell number change,,-28.6%
same,AC50,[1],"4.11 µM [falling, full curve, poor fit]"
same,AC50,[2],"4.61 µM [rising, single point]"
O=C(c1ccccc1F)c1cn(Cc2ccc(F)cc2)c2ccccc12,cell number change,,67.6%
same,AC50,[1],"32.6 µM [rising, single point]"
same,AC50,[2],"29.1 µM [rising, single point]"
COc1ccc(S(=O)(=O)Cc2ccc(C(=O)N3CCC4(CC3)OCCO4)o2)cc1,AC50,[1],"2.31 µM [rising, partial curve]"
same,AC50,[2],"6.51 µM [rising, single point]"
COc1ccc(CCNC(=O)c2c(N)n(CCN3CCOCC3)c3nc4ccccc4nc23)cc1,cell number change,,-61%
same,AC50,[1],"29.1 µM [falling, single point]"
same,AC50,[2],"6.51 µM [rising, single point]"
CCCCN(CC)CCNS(=O)(=O)c1ccc2c(c1)oc(=O)n2C,AC50,[1],"0.116 µM [falling, full curve, poor fit]"
Cn1c(C(=O)N2CCC(C(=O)N3CCC4(CC3)OCCO4)CC2)cc2sccc21,cell number change,,14.2%
same,AC50,[2],"0.092 µM [falling, full curve, poor fit]"
COc1ccc(CNC(C)Cc2cccs2)cc1 (stereo not drawn),cell number change,,-25.3%
O=[N+]([O-])c1cccc(C2N3CCCN23)c1 (stereo not drawn),cell number change,,-42.1%
COC(=O)C(C)Oc1cc(C)cc2oc(=O)c3c(c12)CCCC3 (stereo not drawn),cell number change,,88.2%
same,AC50,[1],"29.1 µM [rising, single point]"
same,AC50,[2],"6.51 µM [rising, single point]"
O=P(NS(=O)(=O)c1ccccc1)(Oc1ccccc1)Oc1ccccc1,cell number change,,-12.1%
same,AC50,[2],"0.0517 µM [falling, full curve]"
Cc1c(C(=O)N2CCC3(CC2)OCCO3)sc2ncnc(N3CCN(c4ccccn4)CC3)c12,cell number change,,319%
same,AC50,[1],"6.51 µM [rising, partial curve]"
same,AC50,[2],"5.17 µM [rising, partial curve]"
COc1ccc(-n2c(O)c(C=Nc3c(C)n(C)n(-c4ccccc4)c3=O)c(=O)[nH]c2=O)cc1,cell number change,,6.85%
same,AC50,[2],"1.16 µM [falling, full curve]"
COc1ccc(-c2nc3ccccc3c(=O)n2-c2cccnc2)cc1,cell number change,,5.58%
O=C(COc1ccc(Br)cc1)N1CCN(Cc2c[nH]c3ccccc23)CC1,AC50,[1],"4.61 µM [rising, single point]"
same,AC50,[2],"5.8 µM [rising, partial curve]"
CN(C)c1ccc(/C=C/C=C2/C(=O)NC(=O)N(c3ccccc3)C2=O)cc1,cell number change,,-91.5%
same,AC50,[1],"20.6 µM [falling, single point]"
same,AC50,[2],"0.58 µM [falling, partial curve]"
CC(C)OP(=O)(OC(C)C)C(O)c1cccnc1 (stereo not drawn),cell number change,,-27.4%
same,AC50,[1],"0.651 µM [falling, full curve, poor fit]"
same,AC50,[2],"7.31 µM [falling, partial curve]"
CCOC(=O)N(CC)c1ccc(C(O)(C(=O)OC)C(F)(F)F)cc1 (stereo not drawn),cell number change,,12.1%
same,AC50,[2],"4.11 µM [rising, full curve]"
C[N+](C)(C)CC(=O)Nc1ccc(Cl)cc1C(=O)c1ccccc1,cell number change,,-32.4%
same,AC50,[1],"14.6 µM [falling, partial curve, poor fit]"
Cn1c(=O)oc2cc(S(=O)(=O)NCCC(=O)N3CCc4ccccc4C3)ccc21,AC50,[1],"16.4 µM [rising, partial curve]"
CC(=NCCO)c1c(O)n(C)c(=O)n(C)c1=O,cell number change,,8.14%
same,AC50,[2],"2.91 µM [rising, single point]"
CCN(CC)C(=O)c1ccc2c(c1)C1C=CCC1C(C(=O)O)N2 (stereo not drawn),cell number change,,7.75%
same,AC50,[2],"29.1 µM [rising, single point]"

# In a second layout: results already given
smiles	measurement	setting	value
COc1cccc(-n2c(CN3CCOCC3)nc3ccc([N+](=O)[O-])cc3c2=O)c1	cell number change		17.1%
NC(CC(=O)O)C1CCCCC1 (stereo not drawn)	cell number change		-14%
COC(=O)C(C)Oc1cc(C)cc2oc(=O)c3c(c12)CCCC3 (stereo not drawn)	AC50	[1]	29.1 µM [rising, single point]
Cn1c(=O)oc2cc(S(=O)(=O)NCCC(=O)N3CCc4ccccc4C3)ccc21	AC50	[1]	16.4 µM [rising, partial curve]

# Looked up one by one from the list above (three):
smiles,measurement,setting,value
COC(=O)C1=C(c2ccc(-c3ccccc3)c(F)c2)C[C@@H]2CC[C@H]1N2C(=O)N1CCC(O)CC1,cell number change,,12%
Cn1cc(C(=O)OCC(=O)N2CCCCC2)c2ccccc21,cell number change,,-6.83%
CC1(C)N=C(c2ccccc2)[C@@H]2C(c3ccc([N+](=O)[O-])cc3)N21 (stereo partly drawn),cell number change,,19.6%
